# In patent publication EP3964206A1, “COMPOUNDS FOR THE TREATMENT OF COVID-19” (priority 2020, dated 2022):
# Test system: SARS-CoV-2
# Experiment: microbe, parasite or virus in culture
# Format: cell-based
# Details: Severe acute respiratory syndrome coronavirus 2, 120 h
smiles,measurement,value
"Nc1ccc(C(=O)Nc2cccc(-c3nc(N4CCOCC4)c4oc5ncccc5c4n3)c2)cn1 [Compound 104, 6-Amino-N-[3-[4-(4-morpholinyl)pyrido[3',2':4,5]furo[3,2-d]pyrimidin-2-yl]phenyl]pyridine-3-carboxamide]",IC50,4.73 µM
